Laboratory results as given in the supplement of paper PMC10689618.
Counter-ions that a name gives are not always drawn. The list shows a part of the results. Single values are uncertain, as repeats are few or missing.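 Labelled rat cortical synaptosomes were engulfed by primary human fetal astrocytes. Engulfment equaled a red/green ratio, corrected for calcein live-cell signal and normalized to the plate median. Compounds were toxic when calcein dropped over 30%, and reduced phagocytosis when below 70% of the median above 5 µM.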

System: Human fetal astrocytes
Assay: synaptosome phagocytosis (pHrodo/calcein intensity ratio) relative to plate median of data wells; higher = more phagocytosis
Conditions: 5.56 µM; 24 h

| Structure (SMILES) | synaptosome phagocytosis [%] |
| --- | --- |
| Brc1ccc([C@H]2CN3CCSC3=N2)cc1 [S(-)-p-Bromotetramisole oxalate] | 121 |
| CN1C2CCC1CC(NC(=O)c1nn(C)c3ccccc13)C2 (stereo unspecified) [LY-278,584 maleate] | 85.8 |
| C=C[C@H]1CN2CC[C@H]1C[C@H]2[C@H](O)c1ccnc2ccc(OC)cc12 [Quinine sulfate] | 93.2 |
| NCCCCCCCCCCN [1,10-Diaminodecane] | 90.9 |
| Cl.N[C@@H](CCC(=O)O)C(=O)O [L-Glutamic acid hydrochloride] | 75.1 |
| CCC(=O)c1ccc2c(c1)N(CCCN(C)C)c1ccccc1S2 [Propionylpromazine hydrochloride] | 116 |
| NC(=O)OCC(COC(N)=O)c1ccccc1 [Felbamate] | 116 |
| CNC(=O)c1cc2c(cn1)[nH]c1ccccc12 [N-Methyl-beta-carboline-3-carboxamide] | 106 |
| CCCCCCCCCC(=O)NC(CN1CCOCC1)[C@H](O)c1ccccc1 (mixture of isomers) | 106 |
| COc1cc2c(cc1OC)-c1c/c(=N\c3c(C)cc(C)cc3C)n(C)c(=O)n1CC2 [Trequinsin hydrochloride] | 116 |
| COC1(C2=NCCN2)COc2ccccc2O1 (stereo unspecified) | 96.3 |
